Data from article doi:10.1101/2021.06.08.447515.

Target: T1, recombinant canonical H2B (His-tag) (T. cruzi (CL Brener strain)) (UniProt B5U6T3)
T1 sequence: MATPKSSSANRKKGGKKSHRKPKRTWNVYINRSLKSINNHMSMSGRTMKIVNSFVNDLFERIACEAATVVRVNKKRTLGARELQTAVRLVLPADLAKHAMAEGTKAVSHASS
Assay: affinity purification with mass spectrometry

retrotransposon hot spot (RHS) protein (TcCLB.506113.60) (T. cruzi (endogenous in TCTs))
binding: binds

Results are given in words; binding and its absence hold for the method and conditions named. In cells and extracts the contact can be indirect. A yes stands for co-enrichment or nearness to the bait. Other partners may have been found. Tags and fused reporters may be left off the sequences shown.
